The nature of the test: qHTS Assay for Lipid Storage Modulators in Drosophila S3 Cells.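 For cell number change: cells counted by Cell Tracker Red CMTPX staining in the red channel.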 The note with it: BODIPY lipid droplet fluorescence, 18-24 h; for cell number change: measured here: cell count max response, cells fed with added oleic acid. In short, it runs like this:
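Laser-scanning cytometry quantifies lipid droplet accumulation (500–530 nm total intensity; droplet/cell object ratio) in oleic acid-fed (400 uM added) Drosophila S3 cells treated with a concentration series. 20 uM Triacsin C defined 100% inhibition.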
For orientation: qHTS replaces the single test concentration by a dilution series.

The mark [1] stands for this setting: measured here: cell number channel AC50, cells fed with added oleic acid.
[2] abbreviates: measured here: lipid fluorescence (Fed channel) AC50, cells fed with added oleic acid.

Some of the results follow. These are further read-outs of the screen, such as a control signal, another cell line or another target. No call is given for them. The list favours compounds with an active or inconclusive main result. The note in brackets gives the kind of curve behind each potency; many fits are weak.

A word on the AC50: it is the concentration at which the activity in the assay is half-maximal. A low value points to activity at low concentration. Consider `Cc1cccc(C(=O)NCC(c2cccs2)N2CCOCC2)c1` (configuration not stated), for which the cell number change is 88.8%. In addition, the AC50 under setting [1] was 5.17 µM [rising, full curve]. Moreover, the AC50 under setting [2] was 11.6 µM [rising, partial curve].
As for `COc1ccccc1NC(=O)CCc1nc(-c2cccs2)no1`, the cell number change worked out at 2.95%.
For `COCCN(Cc1ccccc1)C(=O)c1cc(-c2ccc(OC)c(OC)c2)nc2ccccc12`, the cell number change was -1.33%.
Turning to `COc1ccccc1/C=C1\C(=O)Nc2ccccc21`, the cell number change is -16.2%.
Consider `C=CCOc1ccc(/C=C/C(=O)OCC(=O)N(C)CC(=O)Nc2ccc(F)cc2)cc1`, for which the cell number change came to 25%. In addition, the AC50 under setting [1] was 0.00517 µM [rising, full curve, poor fit].
With `COc1cc(O)c(C(CCN2CCOCC2)c2cc(OC)c(OC)c(OC)c2)c(OC)c1` (configuration not stated), under setting [2], the AC50 is 29.1 µM [rising, single point].
In the case of `Cc1cc(C(=O)N/N=C2\CC(=O)CC(C)(C)C2)c(C)n1-c1ccccc1`, the cell number change is -9.62%. Also, the AC50 under setting [1] is 0.58 µM [rising, single point]. The AC50 under setting [2] is 0.58 µM [rising, partial curve, poor fit].
As for `Cc1[nH]c(=O)[nH]c(=O)c1S(=O)(=O)N1c2ccc(F)cc2CCC1C` (configuration not stated), the cell number change was -90.6%. In addition, under setting [1], the AC50 was 18.4 µM [falling, single point].
Consider `Cc1ccc2nc(/C(C#N)=C\c3cc(C)n(-c4cccc([N+](=O)[O-])c4)c3C)[nH]c2c1`, for which the cell number change came to 11.7%. The AC50 under setting [1] was 2.06 µM [rising, partial curve].
As for `CCOC(=O)c1cc(-c2cccs2)nc2c1c(C)nn2-c1ccccn1`, the cell number change is -26.6%. Moreover, under setting [1], the AC50 was 0.326 µM [rising, partial curve, poor fit]. For the same compound, under setting [2], the AC50 is 0.461 µM [rising, partial curve, poor fit].
As to `O=C1OCC(CO)(CO)N=C1NNc1ccc(Cl)c(Cl)c1`, the cell number change worked out at 11.7%. Under setting [2], the AC50 was 0.116 µM [rising, full curve].
On to `CCCCNC(=O)CSc1nc2c(sc(=S)n2-c2cc(Cl)ccc2OC)c(=O)[nH]1`, for which the cell number change was determined as 60.6%. Besides, the AC50 under setting [1] was 29.1 µM [rising, single point].
As to `CCOc1ccccc1C1CC(=O)Nc2cc(OC)c(OC)cc21` (configuration not stated), the cell number change is -33.6%. Moreover, the AC50 under setting [1] was 13 µM [falling, single point]. Under setting [2], the AC50 was 29.1 µM [falling, single point].
As for `CCOC(=O)C1CCN(C(=S)Nc2ccc(Cl)cc2C)CC1`, the cell number change was 15.9%.
On to `Cc1cccc(Cn2c(Sc3nc(C)cs3)nc3c2c(=O)[nH]c(=O)n3C)c1`, for which the cell number change amounted to 28.2%. Moreover, the AC50 under setting [1] was 1.64 µM [rising, full curve, poor fit].
Consider `O=C(NNc1ccccn1)c1ccc(Cl)nc1`, for which the cell number change was determined as 5.79%.
For the compound `COc1ccc(OC)c(S(=O)(=O)NCCCN2CCCC2=O)c1`, the cell number change is -14.4%. The AC50 under setting [2] was 29.1 µM [rising, single point].
In the case of `O=C(NN(c1ccccc1)c1ccccc1)c1ccccc1F`, the cell number change was -7.14%. Also, the AC50 under setting [2] was 0.00461 µM [falling, full curve, poor fit].
Consider `COc1ccc(N2CC(C(=O)N[C@@H](C)C(=O)N3CCCCC3)CC2=O)cc1` (some centres not stated), for which the cell number change worked out at 7.26%.
For `CCOC(=O)N1CCN(Cc2cn[nH]c2-c2cccc3ccccc23)CC1`, the cell number change was 5.05%. Under setting [2], the AC50 is 20.6 µM [rising, single point].
As to `Cc1cc(N/C=C/C(=O)c2cccs2)ccc1F`, under setting [1], the AC50 was 0.651 µM [rising, single point].
Regarding `COc1ccc2nc(N3CCCCC3)c(C#N)cc2c1`, the cell number change is -44.7%. Moreover, the concentration at half-maximal activity (AC50) under setting [1] is 13 µM [falling, partial curve]. Moreover, the AC50 under setting [2] is 1.3 µM [rising, full curve].
Regarding `C=CCOC(=O)C1=C(C)NC(C)=C(C(=O)OCC=C)C1c1ccco1`, the cell number change came out at 4.21%. Moreover, the AC50 under setting [2] is 0.92 µM [rising, full curve, poor fit].
As to `COc1ccc(C2c3c(n[nH]c3C)CC(C)(O)C2C(C)=O)cc1OC` (configuration not stated), the cell number change was 20.8%.
For the compound `CCCCCCNc1cc2n(c(=O)n1)CCc1cc(OC)c(OC)cc1-2`, the cell number change worked out at 9.37%. Moreover, the AC50 under setting [1] is 0.731 µM [falling, single point]. Moreover, the AC50 under setting [2] is 18.4 µM [falling, single point].
Consider `O=C(NCCO)c1c(O)c2cccc3c2n(c1=O)CC3`, for which the cell number change was found to be 24.9%. Also, the AC50 under setting [2] was 1.16 µM [rising, partial curve].
As for `CC(=O)Nc1ccc(O)c(-c2nc3ccccc3s2)c1`, the cell number change was -29.4%. Under setting [2], the AC50 was 32.6 µM [falling, single point].
As for `COc1ccc(/C=C/C(=O)c2c(C)nc3ccccn23)cc1`, the cell number change was -13.9%. Besides, the AC50 under setting [2] is 8.2 µM [falling, partial curve].
For the compound `O=C1C(=O)N(CCN2CCOCC2)C(c2ccccc2F)/C1=C(\O)c1ccc(S(=O)(=O)N2CCOCC2)cc1` (configuration not stated), the cell number change is -1.28%.
`COc1ccc(CCC(=O)Nc2ccc(S(=O)(=O)Nc3nccc(C)n3)cc2)cc1`: the cell number change is -5.56%. The AC50 under setting [2] was 20.6 µM [rising, single point].
For `CCOc1ccc(C(C)=O)cc1COc1ccc(-n2cnnn2)cc1`, the cell number change was found to be 16.8%.
`Cc1cc(Cl)ccc1OCC(=O)OCC(=O)Nc1ccc(F)c([N+](=O)[O-])c1`: the cell number change was -7.01%. Further, the AC50 under setting [2] was 29.1 µM [falling, single point].
Regarding `CC(C)CC1NC(=O)N(CC(=O)NC2CCCCC2)C1=O` (configuration not stated), the cell number change is -29.3%. Further, the AC50 under setting [1] was 7.31 µM [falling, single point].
For `CCn1c(SCC(=O)NNC(=O)c2ccc(C)cc2)nnc1C1CC1`, the cell number change is 17.1%. In addition, the AC50 under setting [2] was 0.651 µM [rising, single point].
Regarding `Cc1nnc(NC(=O)CSc2nnc(Cc3cccn3C)n2-c2cccc(C(F)(F)F)c2)s1`, the cell number change was -13.5%. The AC50 under setting [1] is 0.651 µM [falling, partial curve, poor fit]. The AC50 under setting [2] was 14.6 µM [falling, partial curve].
On to `COc1ccc(-c2c(O)c(C#N)c(-c3ccccc3)n(-c3ccc(OC)cc3)c2=O)cc1`, for which the cell number change is 2.14%. Besides, under setting [2], the AC50 was 0.731 µM [falling, partial curve, poor fit].
`COc1cccc(CNC(=O)c2ccc(N3CCOCC3)c([N+](=O)[O-])c2)c1`: the cell number change was -19.7%. The AC50 under setting [2] was 35.5 µM [falling, single point].
Turning to `CCOC(=O)c1cc2c(ccn2-c2ccc(F)cc2)n1CC(=O)N(CC)CC`, the cell number change is -57.5%. Also, under setting [1], the AC50 was 2.59 µM [falling, partial curve]. Also, the AC50 under setting [2] is 5.8 µM [falling, partial curve].
As to `CCN1CCN(S(=O)(=O)c2ccc(C(=O)Nc3sc4c(c3C(N)=O)CCN(CC)C4)cc2)CC1`, the cell number change came to 23.8%. In addition, the concentration at half-maximal activity (AC50) under setting [2] was 29.1 µM [rising, single point].
In the case of `Cc1nc(C(=O)N(C)C)nn1-c1ccc([N+](=O)[O-])cc1`, the cell number change is -12.6%. For the same compound, under setting [2], the AC50 was 18.4 µM [falling, single point].
As to `Cc1cc(C)cc(NC(=O)C(OC(=O)c2ccc(O)cc2)c2ccccc2)c1` (configuration not stated), the cell number change is -37.3%. For the same compound, the AC50 under setting [1] is 23.1 µM [falling, partial curve]. Besides, the AC50 under setting [2] was 0.116 µM [rising, full curve, poor fit].
`CCN1CCN(C(=O)C2CCCN(S(=O)(=O)c3ccc(OC)c(OC)c3)C2)CC1` (configuration not stated): the cell number change is 21.4%. The AC50 under setting [2] was 18.4 µM [rising, partial curve].
In the case of `CSCCC(=O)Nc1cc(S(=O)(=O)N2CCOCC2)ccc1N1CCN(C)CC1`, the cell number change came to 18.5%.
Consider `COC(=O)c1ccc(CSc2nnc3c(Cl)cc(Cl)cn23)o1`, for which the cell number change is -18.5%. Moreover, under setting [2], the AC50 is 2.91 µM [rising, full curve].
As for `Nc1ccccc1-c1nnc(-c2ccc(-c3ccccc3)cc2)o1`, the cell number change was -59.6%. In addition, under setting [1], the AC50 is 13 µM [falling, partial curve, poor fit].
For `CC(O)CNCCOc1ccccc1OCc1ccccc1` (configuration not stated), the cell number change was -13.2%. The AC50 under setting [2] is 29.1 µM [falling, single point].
`O=C(CCCc1cccs1)Nc1nc(-c2ccc(F)cc2)cs1`: the cell number change was 2.69%. Besides, the AC50 under setting [2] is 1.3 µM [falling, full curve, poor fit].
As to `CCc1ccc(OCC(=O)NC(=S)Nc2ccc(S(=O)(=O)NC3CCCCC3)cc2)cc1`, the cell number change stood at 26.8%. Moreover, the AC50 under setting [1] was 2.31 µM [rising, full curve, poor fit].
In the case of `COc1ccccc1C(=O)OCC(=O)Nc1ccccc1OC(F)F`, the cell number change came out at 4.66%. In addition, the AC50 under setting [2] is 0.366 µM [rising, full curve].
As to `CC(=O)N1C(=O)N(C(C)=O)C2C1N(C(C)=O)C(=O)N2C(C)=O` (configuration not stated), the cell number change was -58.9%. Further, the AC50 under setting [1] is 20.6 µM [falling, single point]. Further, under setting [2], the AC50 was 16.4 µM [falling, partial curve].
As for `COc1cccc(C(=O)Nc2cc3c4c(c2)CC(=O)N4CCC3)c1`, the AC50 under setting [1] is 2.31 µM [rising, partial curve].
In the case of `COc1ccc(/C=C/C(=O)NCCCn2ccnc2)cc1`, the cell number change was found to be 28.8%. Besides, under setting [2], the AC50 was 10.3 µM [rising, partial curve, poor fit].
Turning to `Cc1cccc(NC(=O)c2onc3c2CCCC3)n1`, the cell number change was -7.63%. In addition, under setting [2], the AC50 is 20.6 µM [rising, single point].
Take `Cc1ccc(NC2=C/C(=N/S(=O)(=O)c3cccs3)c3ccccc3C2=O)cc1`: the cell number change was -82%. Further, under setting [1], the AC50 was 20.6 µM [falling, partial curve]. Moreover, the AC50 under setting [2] was 4.11 µM [falling, partial curve].
Turning to `Cc1csc(NC(=S)Nc2cccc(Cl)c2)n1`, the cell number change is -3.01%. The AC50 under setting [1] was 0.651 µM [rising, single point]. The concentration at half-maximal activity (AC50) under setting [2] is 2.06 µM [rising, partial curve, poor fit].
With `O=C(CC(NC(=O)c1ccccc1Cl)c1ccccc1)NC1=NCCS1` (configuration not stated), the AC50 under setting [1] is 2.31 µM [rising, partial curve].
Take `Cc1cc(C)c2nc(SC(C)C#N)cc(C)c2c1` (configuration not stated): the AC50 under setting [1] is 0.651 µM [rising, partial curve, poor fit] and the AC50 under setting [2] was 0.651 µM [rising, full curve].
As for `Oc1ccc(/C(Cc2ccccn2)=N\Nc2ccccc2)c(O)c1`, the cell number change is -35.7%. The AC50 under setting [1] is 20.6 µM [falling, single point]. For the same compound, the AC50 under setting [2] was 23.1 µM [falling, single point].
Take `COc1cc(OC)c(C(=O)O/N=C(\N)c2ccccn2)cc1OC`: the cell number change is -18%. In addition, the AC50 under setting [2] was 16.4 µM [falling, single point].

For the origin of these results see PubChem BioAssay AID2685 (National Center for Advancing Translational Sciences (NCATS), 2010).
